No constants are given. Whether binding was seen depends on the method and setting. In cells and extracts the contact can be indirect. Here binding means that the protein was enriched with, or labelled near, the bait; the list need not be complete. No binding means not detected with the bait.
T1: TBX2 (T-box 2) (mouse (endogenous in E14.5 lung)) (UniProt Q60707)
T1 sequence: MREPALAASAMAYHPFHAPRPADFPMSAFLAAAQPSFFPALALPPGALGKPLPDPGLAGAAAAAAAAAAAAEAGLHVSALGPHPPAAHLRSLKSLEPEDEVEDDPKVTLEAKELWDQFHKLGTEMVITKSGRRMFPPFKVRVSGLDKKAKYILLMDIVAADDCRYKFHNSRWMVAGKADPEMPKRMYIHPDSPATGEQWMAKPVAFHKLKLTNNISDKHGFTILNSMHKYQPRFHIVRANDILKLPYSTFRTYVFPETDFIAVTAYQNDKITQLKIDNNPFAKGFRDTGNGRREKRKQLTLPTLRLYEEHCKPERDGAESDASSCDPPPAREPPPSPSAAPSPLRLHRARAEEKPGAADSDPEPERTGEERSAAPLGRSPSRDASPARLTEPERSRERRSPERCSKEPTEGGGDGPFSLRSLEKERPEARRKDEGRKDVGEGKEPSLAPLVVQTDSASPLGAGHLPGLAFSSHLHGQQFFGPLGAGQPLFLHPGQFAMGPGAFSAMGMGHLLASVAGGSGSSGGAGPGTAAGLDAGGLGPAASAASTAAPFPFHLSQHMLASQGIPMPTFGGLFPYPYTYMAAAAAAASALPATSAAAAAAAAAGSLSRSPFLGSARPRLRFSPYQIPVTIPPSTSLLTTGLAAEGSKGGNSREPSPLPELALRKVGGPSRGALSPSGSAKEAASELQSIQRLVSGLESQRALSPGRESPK

Chains of the proteins cited; added tags and fusions are not shown.
UniProt Q6A068: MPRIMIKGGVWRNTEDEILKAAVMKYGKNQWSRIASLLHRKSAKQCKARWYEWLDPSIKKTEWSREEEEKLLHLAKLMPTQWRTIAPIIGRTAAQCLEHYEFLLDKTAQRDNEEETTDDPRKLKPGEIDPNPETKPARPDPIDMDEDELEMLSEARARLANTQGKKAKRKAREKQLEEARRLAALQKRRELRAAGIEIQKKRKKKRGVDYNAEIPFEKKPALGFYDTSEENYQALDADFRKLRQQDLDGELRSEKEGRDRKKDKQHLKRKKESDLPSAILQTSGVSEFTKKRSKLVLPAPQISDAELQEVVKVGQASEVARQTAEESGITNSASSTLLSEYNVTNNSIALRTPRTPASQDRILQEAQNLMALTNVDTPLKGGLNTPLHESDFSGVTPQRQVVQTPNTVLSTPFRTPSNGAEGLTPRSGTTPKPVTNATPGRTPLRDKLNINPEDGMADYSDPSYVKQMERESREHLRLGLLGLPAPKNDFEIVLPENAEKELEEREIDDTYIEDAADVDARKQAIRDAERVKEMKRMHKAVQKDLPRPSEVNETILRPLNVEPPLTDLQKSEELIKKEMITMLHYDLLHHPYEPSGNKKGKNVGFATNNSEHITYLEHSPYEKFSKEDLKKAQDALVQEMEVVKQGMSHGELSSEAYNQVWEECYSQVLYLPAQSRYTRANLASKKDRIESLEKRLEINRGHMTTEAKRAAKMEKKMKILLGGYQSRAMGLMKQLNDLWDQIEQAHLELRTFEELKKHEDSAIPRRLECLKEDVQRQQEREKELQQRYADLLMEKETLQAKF
UniProt Q9CXY6: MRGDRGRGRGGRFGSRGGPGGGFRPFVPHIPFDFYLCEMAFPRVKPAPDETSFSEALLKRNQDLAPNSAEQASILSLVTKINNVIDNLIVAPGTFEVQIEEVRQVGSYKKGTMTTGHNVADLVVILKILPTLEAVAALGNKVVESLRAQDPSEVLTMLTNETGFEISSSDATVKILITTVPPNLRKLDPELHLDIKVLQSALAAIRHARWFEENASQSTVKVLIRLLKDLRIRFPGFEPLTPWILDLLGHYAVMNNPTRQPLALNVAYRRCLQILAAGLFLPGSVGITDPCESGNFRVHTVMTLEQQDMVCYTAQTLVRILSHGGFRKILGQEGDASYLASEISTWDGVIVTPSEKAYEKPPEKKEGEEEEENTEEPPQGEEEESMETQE
UniProt P13864: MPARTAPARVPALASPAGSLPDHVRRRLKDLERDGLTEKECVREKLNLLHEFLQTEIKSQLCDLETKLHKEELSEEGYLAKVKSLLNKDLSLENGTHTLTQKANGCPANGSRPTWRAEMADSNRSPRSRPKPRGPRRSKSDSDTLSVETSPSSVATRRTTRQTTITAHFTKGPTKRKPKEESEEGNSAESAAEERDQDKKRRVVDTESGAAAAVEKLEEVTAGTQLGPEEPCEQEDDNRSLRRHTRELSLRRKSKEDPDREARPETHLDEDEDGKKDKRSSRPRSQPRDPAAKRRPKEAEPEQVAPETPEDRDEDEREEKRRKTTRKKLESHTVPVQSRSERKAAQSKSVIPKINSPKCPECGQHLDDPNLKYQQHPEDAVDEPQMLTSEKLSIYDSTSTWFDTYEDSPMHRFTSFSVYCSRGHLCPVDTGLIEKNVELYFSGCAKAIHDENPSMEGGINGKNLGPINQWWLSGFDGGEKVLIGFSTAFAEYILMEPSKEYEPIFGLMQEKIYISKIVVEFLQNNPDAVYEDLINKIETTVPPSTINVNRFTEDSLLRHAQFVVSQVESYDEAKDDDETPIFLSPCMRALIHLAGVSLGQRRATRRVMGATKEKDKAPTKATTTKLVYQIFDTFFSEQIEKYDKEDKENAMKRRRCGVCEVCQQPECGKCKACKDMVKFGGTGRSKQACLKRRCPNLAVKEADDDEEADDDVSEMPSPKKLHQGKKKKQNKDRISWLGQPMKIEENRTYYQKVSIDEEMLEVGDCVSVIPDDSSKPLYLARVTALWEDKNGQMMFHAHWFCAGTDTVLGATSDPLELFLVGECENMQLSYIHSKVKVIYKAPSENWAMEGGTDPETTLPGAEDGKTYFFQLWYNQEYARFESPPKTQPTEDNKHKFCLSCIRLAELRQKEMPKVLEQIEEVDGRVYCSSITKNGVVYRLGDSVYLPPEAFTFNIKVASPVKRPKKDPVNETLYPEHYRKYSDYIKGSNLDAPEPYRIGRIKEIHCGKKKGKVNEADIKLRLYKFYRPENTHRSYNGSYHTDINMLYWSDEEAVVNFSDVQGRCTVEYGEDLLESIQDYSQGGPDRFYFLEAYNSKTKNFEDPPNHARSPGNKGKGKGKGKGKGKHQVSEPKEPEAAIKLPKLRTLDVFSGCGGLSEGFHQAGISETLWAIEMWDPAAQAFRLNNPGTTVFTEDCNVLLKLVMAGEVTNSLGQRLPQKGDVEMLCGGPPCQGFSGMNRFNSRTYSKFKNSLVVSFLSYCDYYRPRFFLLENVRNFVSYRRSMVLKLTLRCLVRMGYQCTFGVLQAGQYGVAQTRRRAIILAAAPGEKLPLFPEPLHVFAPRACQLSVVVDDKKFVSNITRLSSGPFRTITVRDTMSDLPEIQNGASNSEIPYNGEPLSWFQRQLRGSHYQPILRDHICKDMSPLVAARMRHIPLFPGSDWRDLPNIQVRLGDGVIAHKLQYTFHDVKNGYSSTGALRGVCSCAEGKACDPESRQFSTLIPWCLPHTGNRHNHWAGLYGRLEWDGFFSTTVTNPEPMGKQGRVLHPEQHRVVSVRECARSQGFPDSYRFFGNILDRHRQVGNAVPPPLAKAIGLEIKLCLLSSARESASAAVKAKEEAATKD
UniProt Q60668: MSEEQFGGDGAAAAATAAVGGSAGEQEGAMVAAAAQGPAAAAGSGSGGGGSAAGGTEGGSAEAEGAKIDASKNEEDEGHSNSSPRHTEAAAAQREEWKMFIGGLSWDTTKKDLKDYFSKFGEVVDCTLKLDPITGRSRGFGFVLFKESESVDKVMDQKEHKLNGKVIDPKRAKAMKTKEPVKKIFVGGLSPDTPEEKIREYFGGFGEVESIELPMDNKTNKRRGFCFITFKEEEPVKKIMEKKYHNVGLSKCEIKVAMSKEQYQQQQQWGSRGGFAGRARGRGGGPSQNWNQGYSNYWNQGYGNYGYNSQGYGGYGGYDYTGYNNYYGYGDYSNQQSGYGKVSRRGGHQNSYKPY
UniProt P97496: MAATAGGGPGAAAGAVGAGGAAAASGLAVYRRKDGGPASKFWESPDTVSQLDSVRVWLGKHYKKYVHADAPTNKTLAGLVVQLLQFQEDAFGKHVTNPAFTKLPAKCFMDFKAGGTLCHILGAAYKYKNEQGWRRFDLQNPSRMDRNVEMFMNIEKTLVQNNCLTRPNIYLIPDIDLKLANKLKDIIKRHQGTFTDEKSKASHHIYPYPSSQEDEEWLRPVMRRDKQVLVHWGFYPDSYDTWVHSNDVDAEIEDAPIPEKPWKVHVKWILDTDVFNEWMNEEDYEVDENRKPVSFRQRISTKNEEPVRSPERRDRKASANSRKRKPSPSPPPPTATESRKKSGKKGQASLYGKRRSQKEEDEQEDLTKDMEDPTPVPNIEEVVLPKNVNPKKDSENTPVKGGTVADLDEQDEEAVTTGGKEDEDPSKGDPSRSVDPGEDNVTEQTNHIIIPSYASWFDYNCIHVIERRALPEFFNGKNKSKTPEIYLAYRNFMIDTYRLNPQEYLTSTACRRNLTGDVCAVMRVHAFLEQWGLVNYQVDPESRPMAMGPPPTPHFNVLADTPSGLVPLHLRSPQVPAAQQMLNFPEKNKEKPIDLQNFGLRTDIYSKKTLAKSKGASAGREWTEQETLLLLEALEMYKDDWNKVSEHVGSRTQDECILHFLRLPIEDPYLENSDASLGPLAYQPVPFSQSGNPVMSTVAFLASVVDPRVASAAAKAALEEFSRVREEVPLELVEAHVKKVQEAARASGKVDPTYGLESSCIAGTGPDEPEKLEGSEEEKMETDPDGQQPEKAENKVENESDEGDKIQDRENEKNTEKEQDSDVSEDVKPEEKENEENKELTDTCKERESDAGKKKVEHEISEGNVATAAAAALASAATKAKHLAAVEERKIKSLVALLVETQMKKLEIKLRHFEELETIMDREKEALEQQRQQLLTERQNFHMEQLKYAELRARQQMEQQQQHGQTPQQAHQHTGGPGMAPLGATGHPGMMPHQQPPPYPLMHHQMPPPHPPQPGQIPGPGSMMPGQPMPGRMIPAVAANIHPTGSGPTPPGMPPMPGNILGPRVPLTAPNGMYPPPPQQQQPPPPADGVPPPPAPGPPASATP
UniProt P23198: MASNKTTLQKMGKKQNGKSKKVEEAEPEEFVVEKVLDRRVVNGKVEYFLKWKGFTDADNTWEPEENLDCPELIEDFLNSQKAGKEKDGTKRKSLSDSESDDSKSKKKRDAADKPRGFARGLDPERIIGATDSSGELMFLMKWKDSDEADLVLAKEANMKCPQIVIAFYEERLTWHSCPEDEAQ
UniProt Q61103: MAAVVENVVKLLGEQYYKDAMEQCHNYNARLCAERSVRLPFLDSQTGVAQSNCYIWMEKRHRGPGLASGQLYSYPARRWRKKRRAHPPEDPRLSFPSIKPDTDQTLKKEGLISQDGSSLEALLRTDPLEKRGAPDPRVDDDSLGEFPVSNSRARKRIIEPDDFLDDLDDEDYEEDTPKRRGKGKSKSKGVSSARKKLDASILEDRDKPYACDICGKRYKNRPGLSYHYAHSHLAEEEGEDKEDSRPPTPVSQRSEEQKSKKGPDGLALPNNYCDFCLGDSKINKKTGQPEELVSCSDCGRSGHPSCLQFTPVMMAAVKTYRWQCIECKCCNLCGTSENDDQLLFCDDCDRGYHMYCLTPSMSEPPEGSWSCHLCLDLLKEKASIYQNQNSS
UniProt Q3TKT4: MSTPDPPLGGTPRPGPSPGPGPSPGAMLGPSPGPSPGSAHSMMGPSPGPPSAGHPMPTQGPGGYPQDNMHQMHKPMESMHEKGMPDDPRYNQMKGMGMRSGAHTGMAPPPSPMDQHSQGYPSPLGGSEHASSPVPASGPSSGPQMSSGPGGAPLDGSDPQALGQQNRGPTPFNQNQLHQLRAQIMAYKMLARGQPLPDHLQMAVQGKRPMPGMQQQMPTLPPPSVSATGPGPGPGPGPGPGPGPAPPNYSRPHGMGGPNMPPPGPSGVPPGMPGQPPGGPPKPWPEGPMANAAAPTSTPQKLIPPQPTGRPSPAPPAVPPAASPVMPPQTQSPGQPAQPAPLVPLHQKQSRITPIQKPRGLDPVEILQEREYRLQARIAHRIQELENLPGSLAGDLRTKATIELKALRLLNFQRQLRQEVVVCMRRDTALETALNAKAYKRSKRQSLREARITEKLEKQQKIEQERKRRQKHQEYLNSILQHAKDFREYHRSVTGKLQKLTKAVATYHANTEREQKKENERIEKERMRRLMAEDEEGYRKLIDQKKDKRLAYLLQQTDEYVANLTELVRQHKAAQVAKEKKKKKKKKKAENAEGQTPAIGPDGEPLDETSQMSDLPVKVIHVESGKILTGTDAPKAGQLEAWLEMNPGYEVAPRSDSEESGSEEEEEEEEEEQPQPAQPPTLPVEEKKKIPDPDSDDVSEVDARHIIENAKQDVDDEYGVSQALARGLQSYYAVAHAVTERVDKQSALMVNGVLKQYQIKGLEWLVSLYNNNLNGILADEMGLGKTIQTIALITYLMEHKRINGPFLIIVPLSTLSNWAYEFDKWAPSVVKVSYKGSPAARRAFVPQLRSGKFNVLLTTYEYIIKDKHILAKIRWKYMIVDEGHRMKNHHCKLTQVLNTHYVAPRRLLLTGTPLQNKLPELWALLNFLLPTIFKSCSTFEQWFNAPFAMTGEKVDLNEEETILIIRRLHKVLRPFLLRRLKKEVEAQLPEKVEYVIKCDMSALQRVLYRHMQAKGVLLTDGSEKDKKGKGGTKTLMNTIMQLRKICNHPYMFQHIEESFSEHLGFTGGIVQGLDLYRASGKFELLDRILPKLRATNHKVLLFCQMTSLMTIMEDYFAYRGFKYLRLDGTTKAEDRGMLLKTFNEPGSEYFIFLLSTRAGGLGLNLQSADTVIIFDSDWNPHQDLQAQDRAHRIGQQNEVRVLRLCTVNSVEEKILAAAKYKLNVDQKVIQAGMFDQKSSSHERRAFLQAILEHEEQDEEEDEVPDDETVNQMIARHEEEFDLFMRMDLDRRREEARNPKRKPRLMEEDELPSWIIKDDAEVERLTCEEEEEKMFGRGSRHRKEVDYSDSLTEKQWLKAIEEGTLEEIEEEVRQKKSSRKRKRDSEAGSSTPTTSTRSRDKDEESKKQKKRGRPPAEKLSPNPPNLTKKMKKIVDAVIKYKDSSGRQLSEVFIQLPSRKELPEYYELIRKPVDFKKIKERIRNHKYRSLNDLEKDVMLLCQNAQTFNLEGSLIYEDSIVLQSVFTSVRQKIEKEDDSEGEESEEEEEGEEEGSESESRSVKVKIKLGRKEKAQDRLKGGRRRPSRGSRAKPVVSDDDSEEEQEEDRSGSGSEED

B1: HMGB2 (high mobility group box 2) (protein, UniProt P30681 1-210)
chain: MGKGDPNKPRGKMSSYAFFVQTCREEHKKKHPDSSVNFAEFSKKCSERWKTMSAKEKSKFEDLAKSDKARYDREMKNYVPPKGDKKGKKKDPNAPKRPPSAFFLFCSENRPKIKIEHPGLSIGDTAKKLGEMWSEQSAKDKQPYEQKAAKLKEKYEKDIAAYRAKGKSEAGKKGPGRPTGSKKKNEPEDEEEEEEEEEEEDDEEEEEDEE
B2: MYBBP1A (MYB binding protein (P160) 1a) (protein, UniProt Q7TPV4 1-1344)
chain: MAEMKSPTKAEPATPAEAAQSDRHSLLEHSREFLDFFWDIAKPDQETRLRATEKLLEYLRTRPNDSEMKYALKRLITGLGVGREAARPCYSLALAQLLQSFEDIPLCDILDQIQEKYSLQAMNKAMMRPSLFANLFGVLALFQSGRLVKDKEALMKSVQLLKILSQHPNHLQGQPIKALVDILSEVPESMFQEILPKVLKGNMKVILRSPKYLELFLLAKQRVPTKLESLMGSVDLFSEDNIPSLVNILKVAANSVKKEHKLPNVALDLLRLALKESRFELFWKKVLEEGLLKNPSWTSSYMCFRLLGASLPLLSEEQLQLVMRGDLIRHFGENMVISKPQNLFKIIPEISTYVGTFLEGCQDDPKRQLTMMVAFTTITNQGLPVMPTFWRVTRFLNAEALQSYVAWLRDMFLQPDLNSLVDFSTANQKRAQDASLNVPERAVFRLRKWIIHRLVSLVDHLHLEKDEAVVEQIARFCLFHAFFKTKKATPQIPETKQHFSFPLDDRNRGVFVSAFFSLLQTLSVKFRQTPDLAENGKPWTYRLVQLADMLLNHNRNVTSVTSLTTQQRQAWDQMMSTLKELEARSSETRAIAFQHLLLLVGLHIFKSPAESCDVLGDIQTCIKKSMEQNPRRSRSRAKASQEPVWVEVMVEILLSLLAQPSNLMRQVVRSVFGHICPHLTPRCLQLILAVLSPVTNEDEDDNVVVTDDADEKQLQHGEDEDSDNEDNKNSESDMDSEDGEESEEEDRDKDVDPGFRQQLMEVLKAGNALGGVDNEEEEELGDEAMMALDQNLASLFKEQKMRIQARNEEKNKLQKEKKLRRDFQIRALDLIEVLVTKQPEHPLILELLEPLLNVIQHSMRSKGSTKQEQDLLHKTARIFMHHLCRARRYCHEVGPCAEALHAQVERLVQQAGSQADASVALYYFNASLYLLRVLKGNTNKRHQDGHKLHGADTEDSEDQAANCLDLDFVTRVYSASLESLLTKRNSSLTVPMFLSLFSRYPVICKNLLPVLAQHVAGPSRPRHQAQACLMLQKTLSARELRVCFEDPEWEQLITQLLGKATQTLQTLGEAQSKGEHQKELSILELLNTLLRTVNHEKLSVDLTAPLGVLQSKQQKLQQSLQQGNHSSGSNRLYDLYWQAMRMLGVQRPKSEKKNAKDIPSDTQSPVSTKRKKKGFLPETKKRKKLKSEGTTPEKNAASQQDAVTEGAMPAATGKDQPPSTGKKKRKRVKASTPSQVNGITGAKSPAPSNPTLSPSTPAKTPKLQKKKEKLSQVNGATPVSPIEPESKKHHQEALSTKEVIRKSPHPQSALPKKRARLSLVSRSPSLLQSGVKKRRVASRRVQTP
B3: RBM39 (RNA binding motif protein 39) (protein, UniProt Q8VH51 1-530)
chain: MADDIDIEAMLEAPYKKDENKLNSANGHEERSKKRKKSKSRSRSHERKRSKSKERKRSRDRERKKSKSRERKRSRSKERRRSRSRSRDRRFRGRYRSPYSGPKFNSAIRGKIGLPHSIKLSRRRSRSKSPFRKDKSPVREPIDNLTPEERDARTVFCMQLAARIRPRDLEEFFSTVGKVRDVRMISDRNSRRSKGIAYVEFVDVSSVPLAIGLTGQRVLGVPIIVQASQAEKNRAAAMANNLQKGSAGPMRLYVGSLHFNITEDMLRGIFEPFGRIESIQLMMDSETGRSKGYGFITFSDSECAKKALEQLNGFELAGRPMKVGHVTERTDASSASSFLDSDELERTGIDLGTTGRLQLMARLAEGTGLQIPPAAQQALQMSGSLAFGAVAEFSFVIDLQTRLSQQTEASALAAAASVQPLATQCFQLSNMFNPQTEEEVGWDTEIKDDVIEECNKHGGVIHIYVDKNSAQGNVYVKCPSIAAAIAAVNALHGRWFAGKMITAAYVPLPTYHNLFPDSMTATQLLVPSRR
B4: LMNB1 (lamin B1) (protein, UniProt P14733 1-588)
chain: MATATPVQQQRAGSRASAPATPLSPTRLSRLQEKEELRELNDRLAVYIDKVRSLETENSALQLQVTEREEVRGRELTGLKALYETELADARRALDDTARERAKLQIELGKFKAEHDQLLLNYAKKESDLSGAQIKLREYEAALNSKDAALATALGDKKSLEGDLEDLKDQIAQLEASLSAAKKQLADETLLKVDLENRCQSLTEDLEFRKNMYEEEINETRRKHETRLVEVDSGRQIEYEYKLAQALHEMREQHDAQVRLYKEELEQTYHAKLENARLSSEMNTSTVNSAREELMESRMRIESLSSQLSNLQKESRACLERIQELEDMLAKERDNSRRMLSDREREMAEIRDQMQQQLSDYEQLLDVKLALDMEISAYRKLLEGEEERLKLSPSPSSRVTVSRASSSRSVRTTRGKRKRVDVEESEASSSVSISHSASATGNVCIEEIDVDGKFIRLKNTSEQDQPMGGWEMIRKIGDTSVSYKYTSRYVLKAGQTVTVWAANAGVTASPPTDLIWKNQNSWGTGEDVKVILKNSQGEEVAQRSTVFKTTIPEEEEEEEEEPIGVAVEEERFHQQGAPRASNKSCAIM
B5: RBM14 (RNA binding motif protein 14) (protein, UniProt Q8C2Q3 1-669)
chain: MKIFVGNVDGADTTPEELAALFAPYGTVMSCAVMKQFAFVHMRENAGAVRAIEALHGHELRPGRALVVEMSRPRPLNTWKIFVGNVSAACTSQELRSLFERRGRVIECDVVKDYAFVHMEKEADAKAAIAQLNGKEVKGKRINVELSTKGQKKGPALAIQSGDKTKKPGAGDTAFPGTGGFSATFDYQQAFGNSTGGFDGQARQPTPPFFGRDRSPLRRSPPRASYVAPLTAQPATYRAQPSVSLGAAYRAQPSASLGVGYRTQPMAAQAASYRAQPSVSLGAPYRGQLASPSSQSAAASSLGPYGGVQPSASALSTYGGQAAAASSLNSYGAQGSSLASYGNQPSSYGAQAASSYGVRAAASSYNTQGAASSLGSYGAQAASYGAQSAASSLAYGAQAASYSAQPSASYSAQSAPYAAQQAASYSSQPAAYVAQPATAAAYASQPAAYAAQATTPMAGSYGAQPVVQTQLNSYGAQASIGLSGSYGAQSAAAATGSYGAAAAYGAQPSATLAAPYRTQSSASLAASYAAQQHPQAAASYRGQPGSAYDGTGQPSAAYLSMSQGAVANANSTPPPYERTRLSPPRASYDDPYKKAVAMSKRYGSDRRLAELSDYRRLSESQLSFRRSPTKSSLDYRRLPDAHSDYARYSGSYNDYLRAAQMHSGYQRRM

Target: T1, TBX2 (T-box 2) (mouse (endogenous in E14.5 lung))
Experiment: affinity purification with mass spectrometry; RIME protocol: formaldehyde-fixed E14.5 wildtype mouse lungs (100 each, three experiments), lysate incubated overnight at 4 °C with anti-TBX2 antibody on Protein G magnetic beads; control normal rabbit IgG; LC-MS/MS; enrichment of 2 or larger

**Q.** “CDC5L (cell division cycle 5-like) (from UniProt Q6A068 1-802)” was tested. Which binding did it give?
**A.** binds

**Q.** “ILF2 (interleukin enhancer binding factor 2) (from UniProt Q9CXY6 1-390)” was tested. Which binding did it give?
**A.** binds

**Q.** “HDAC1 (histone deacetylase 1) (from UniProt O09106 1-482) (enzyme)” was tested. Which binding did it give?
**A.** binds

**Q.** For “DNMT1 (DNA (cytosine-5) methyltransferase 1) (from UniProt P13864 1-1620) (enzyme)”, which binding is on record?
**A.** binds

**Q.** “HNRNPD (heterogeneous nuclear ribonucleoprotein D) (from UniProt Q60668 1-355)” was tested. Which binding did it give?
**A.** binds

**Q.** For “HDAC2 (histone deacetylase 2) (from UniProt P70288 1-488) (enzyme)”, which binding is on record?
**A.** binds

**Q.** How did the binding turn out when “CHD4 (chromodomain helicase DNA binding protein 4) (from UniProt Q6PDQ2 1-1915) (enzyme)” was run?
**A.** binds

**Q.** For “SMARCC1 (SWI/SNF related, matrix associated, actin dependent regulator of chromatin, subfamily c, member 1) (from UniProt P97496 1-1104)”, which binding is on record?
**A.** binds

**Q.** “SMARCA2 (SWI/SNF related, matrix associated, actin dependent regulator of chromatin, subfamily a, member 2) (from UniProt Q6DIC0 1-1577) (enzyme)” was tested. Which binding did it give?
**A.** no binding

**Q.** With “CBX3 (chromobox 3) (from UniProt P23198 1-183)” as the molecule, how does the binding read?
**A.** binds

**Q.** “DPF2 (D4, zinc and double PHD fingers family 2) (from UniProt Q61103 1-391)” was tested. Which binding did it give?
**A.** binds

**Q.** How did the binding turn out when “SMARCA4 (SWI/SNF related, matrix associated, actin dependent regulator of chromatin, subfamily a, member 4) (from UniProt Q3TKT4 1-1613) (enzyme)” was run?
**A.** no binding

**Q.** Which binding does the source give for B1 here?
**A.** binds

**Q.** B2 was tested. Which binding did it give?
**A.** binds

**Q.** For B3, which binding is on record?
**A.** binds

**Q.** B4 was tested. Which binding did it give?
**A.** binds

**Q.** B5 was tested. Which binding did it give?
**A.** binds
